Not every detail of the peptide structures is certain; ends, links or a residue may be inferred. No end group written: not given here.
Experiments:
duodenum specimens = experiment: Intestine-contracting activity on isolated duodenum (Magnus bath); format: cell-based, rabbits; settings: contractile tension on cumulative addition of 1 × 10⁻⁹ to 3 × 10⁻⁷ g/ml in Tyrode solution, 28 ± 1°C, as percentage of 10⁻⁵ g/ml acetylcholine (100%); curves only in Fig. 17
[1] = Loss of motilin activity caused by oxidation; settings: statement of the summary, no method described

Sequence: FVPIFTYGELQRLQEKERNKGQ [[Leu¹³]motilin]
- intestine-contracting activity (duodenum specimens): comparable in intestine-contracting activity to naturally occurring porcine motilin
- loss of activity caused by oxidation [1]: does not suffer the loss of activity caused by oxidation

Reference: patent EP0259891B1, “[Leu 13] motilin, DNAs coding for same and methods for producing same” (KYOWA HAKKO KOGYO CO., LTD., priority 1986, dated 1995)
